# Measured values reported in the supplement of paper PMC12595434, “Development of retinoid nuclear receptor pathway antagonists through targeting aldehyde dehydrogenase 1A3” (iScience, 2025).
# Amino acid sequences for entries named in this document (tags omitted). A change or cut given only in a name is not applied to a line headed by its entry.
# UniProt Q969E8: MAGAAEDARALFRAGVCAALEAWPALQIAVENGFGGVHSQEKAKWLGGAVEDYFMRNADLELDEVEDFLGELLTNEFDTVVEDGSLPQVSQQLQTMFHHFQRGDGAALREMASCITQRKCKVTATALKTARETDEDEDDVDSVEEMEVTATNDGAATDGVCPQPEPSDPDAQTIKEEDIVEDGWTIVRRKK
# UniProt Q92585: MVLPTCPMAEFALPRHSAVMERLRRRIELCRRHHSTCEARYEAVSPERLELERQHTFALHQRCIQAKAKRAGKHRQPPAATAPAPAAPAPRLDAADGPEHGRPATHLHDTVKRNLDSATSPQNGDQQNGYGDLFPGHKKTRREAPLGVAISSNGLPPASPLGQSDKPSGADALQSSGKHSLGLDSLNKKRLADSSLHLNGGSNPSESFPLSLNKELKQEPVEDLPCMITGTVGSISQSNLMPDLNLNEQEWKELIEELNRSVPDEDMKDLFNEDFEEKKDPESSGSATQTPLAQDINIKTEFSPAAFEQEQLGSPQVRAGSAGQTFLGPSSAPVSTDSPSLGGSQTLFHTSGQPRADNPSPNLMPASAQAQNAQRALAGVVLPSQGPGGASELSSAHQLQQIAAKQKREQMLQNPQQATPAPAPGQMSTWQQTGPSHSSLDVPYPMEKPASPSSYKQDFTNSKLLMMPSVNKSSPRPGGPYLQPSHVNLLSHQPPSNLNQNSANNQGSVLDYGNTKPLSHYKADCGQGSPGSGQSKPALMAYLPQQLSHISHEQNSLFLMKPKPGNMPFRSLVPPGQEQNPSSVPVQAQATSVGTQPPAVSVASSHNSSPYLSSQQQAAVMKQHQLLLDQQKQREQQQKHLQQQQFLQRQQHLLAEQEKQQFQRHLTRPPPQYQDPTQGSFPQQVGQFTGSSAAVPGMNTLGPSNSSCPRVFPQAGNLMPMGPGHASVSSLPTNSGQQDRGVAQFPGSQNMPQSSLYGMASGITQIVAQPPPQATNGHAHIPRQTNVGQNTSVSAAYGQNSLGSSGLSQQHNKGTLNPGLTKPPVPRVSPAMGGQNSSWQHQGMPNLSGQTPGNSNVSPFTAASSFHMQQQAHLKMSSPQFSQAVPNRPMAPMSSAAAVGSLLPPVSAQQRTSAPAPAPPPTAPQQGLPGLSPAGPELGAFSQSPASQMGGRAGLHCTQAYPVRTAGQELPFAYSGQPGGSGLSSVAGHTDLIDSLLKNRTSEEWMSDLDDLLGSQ
# UniProt Q96CG3: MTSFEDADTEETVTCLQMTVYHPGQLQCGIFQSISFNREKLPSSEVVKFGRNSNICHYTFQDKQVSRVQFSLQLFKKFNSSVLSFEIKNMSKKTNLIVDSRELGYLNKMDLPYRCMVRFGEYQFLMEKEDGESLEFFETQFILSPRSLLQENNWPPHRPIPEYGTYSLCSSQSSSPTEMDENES
# UniProt Q96B45: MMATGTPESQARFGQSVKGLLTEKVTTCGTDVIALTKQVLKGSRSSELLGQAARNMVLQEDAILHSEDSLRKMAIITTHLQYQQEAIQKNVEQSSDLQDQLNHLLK
# UniProt Q96DB5: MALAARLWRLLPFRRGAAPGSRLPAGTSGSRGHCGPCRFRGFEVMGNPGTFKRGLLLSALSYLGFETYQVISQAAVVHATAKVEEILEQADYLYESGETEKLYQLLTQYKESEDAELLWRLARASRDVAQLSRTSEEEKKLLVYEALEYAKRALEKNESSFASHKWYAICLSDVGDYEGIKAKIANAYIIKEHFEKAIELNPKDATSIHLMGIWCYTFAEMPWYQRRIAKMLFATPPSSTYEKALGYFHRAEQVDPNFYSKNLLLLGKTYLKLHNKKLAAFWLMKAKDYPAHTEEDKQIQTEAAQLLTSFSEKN
# UniProt Q8WX92, whole entry: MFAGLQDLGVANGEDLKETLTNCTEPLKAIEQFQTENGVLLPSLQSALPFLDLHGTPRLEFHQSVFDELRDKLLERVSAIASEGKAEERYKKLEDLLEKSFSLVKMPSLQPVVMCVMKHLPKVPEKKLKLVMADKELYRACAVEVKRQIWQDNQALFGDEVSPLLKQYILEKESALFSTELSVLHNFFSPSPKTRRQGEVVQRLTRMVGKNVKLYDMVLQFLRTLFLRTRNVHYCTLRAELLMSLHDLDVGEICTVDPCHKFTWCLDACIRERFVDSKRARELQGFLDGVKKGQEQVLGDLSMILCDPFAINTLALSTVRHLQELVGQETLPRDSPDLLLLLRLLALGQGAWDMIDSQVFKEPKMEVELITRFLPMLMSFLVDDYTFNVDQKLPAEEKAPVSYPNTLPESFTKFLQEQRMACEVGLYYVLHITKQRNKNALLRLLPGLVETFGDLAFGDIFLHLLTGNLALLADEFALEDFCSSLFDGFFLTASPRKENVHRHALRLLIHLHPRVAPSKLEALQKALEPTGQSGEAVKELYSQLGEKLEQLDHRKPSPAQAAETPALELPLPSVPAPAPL
# UniProt Q969X1: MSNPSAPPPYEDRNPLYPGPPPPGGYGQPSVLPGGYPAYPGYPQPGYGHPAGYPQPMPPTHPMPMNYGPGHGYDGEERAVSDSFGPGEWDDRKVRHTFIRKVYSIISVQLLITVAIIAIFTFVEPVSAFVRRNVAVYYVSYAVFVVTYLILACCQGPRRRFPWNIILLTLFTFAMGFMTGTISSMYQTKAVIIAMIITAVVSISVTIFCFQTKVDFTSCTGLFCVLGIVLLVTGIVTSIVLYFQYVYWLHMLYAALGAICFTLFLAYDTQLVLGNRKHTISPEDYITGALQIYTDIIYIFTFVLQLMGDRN
# UniProt Q96CN9: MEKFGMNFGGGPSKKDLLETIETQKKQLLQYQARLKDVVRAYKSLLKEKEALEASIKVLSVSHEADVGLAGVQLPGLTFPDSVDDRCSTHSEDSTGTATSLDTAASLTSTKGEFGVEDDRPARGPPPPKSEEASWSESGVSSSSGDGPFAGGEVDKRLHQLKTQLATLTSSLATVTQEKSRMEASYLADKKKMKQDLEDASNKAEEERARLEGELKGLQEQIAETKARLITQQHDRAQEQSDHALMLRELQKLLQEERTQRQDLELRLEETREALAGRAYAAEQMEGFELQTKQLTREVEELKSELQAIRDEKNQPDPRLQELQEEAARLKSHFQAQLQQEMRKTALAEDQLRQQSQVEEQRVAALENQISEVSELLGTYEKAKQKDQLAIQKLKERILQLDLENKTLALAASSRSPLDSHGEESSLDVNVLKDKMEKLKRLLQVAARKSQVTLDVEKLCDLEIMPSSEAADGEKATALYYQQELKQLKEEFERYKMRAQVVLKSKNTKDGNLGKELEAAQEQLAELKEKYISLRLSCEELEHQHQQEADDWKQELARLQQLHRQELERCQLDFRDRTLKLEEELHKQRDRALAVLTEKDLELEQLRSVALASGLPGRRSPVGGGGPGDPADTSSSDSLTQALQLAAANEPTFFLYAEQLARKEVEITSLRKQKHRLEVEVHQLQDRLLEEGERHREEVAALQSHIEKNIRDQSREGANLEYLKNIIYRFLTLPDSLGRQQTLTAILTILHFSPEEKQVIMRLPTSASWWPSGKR
# UniProt Q92484: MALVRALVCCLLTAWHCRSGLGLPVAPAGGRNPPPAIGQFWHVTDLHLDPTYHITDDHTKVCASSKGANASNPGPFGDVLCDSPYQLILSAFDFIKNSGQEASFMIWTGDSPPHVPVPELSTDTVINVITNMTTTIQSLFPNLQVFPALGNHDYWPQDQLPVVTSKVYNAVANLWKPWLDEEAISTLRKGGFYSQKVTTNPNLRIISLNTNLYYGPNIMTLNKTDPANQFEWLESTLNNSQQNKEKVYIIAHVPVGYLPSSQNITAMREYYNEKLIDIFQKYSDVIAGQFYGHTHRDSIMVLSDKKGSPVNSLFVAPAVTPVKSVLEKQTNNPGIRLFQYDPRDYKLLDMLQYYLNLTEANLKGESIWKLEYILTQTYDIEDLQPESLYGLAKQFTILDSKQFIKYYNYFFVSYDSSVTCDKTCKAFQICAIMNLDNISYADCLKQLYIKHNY
# UniProt Q96E09: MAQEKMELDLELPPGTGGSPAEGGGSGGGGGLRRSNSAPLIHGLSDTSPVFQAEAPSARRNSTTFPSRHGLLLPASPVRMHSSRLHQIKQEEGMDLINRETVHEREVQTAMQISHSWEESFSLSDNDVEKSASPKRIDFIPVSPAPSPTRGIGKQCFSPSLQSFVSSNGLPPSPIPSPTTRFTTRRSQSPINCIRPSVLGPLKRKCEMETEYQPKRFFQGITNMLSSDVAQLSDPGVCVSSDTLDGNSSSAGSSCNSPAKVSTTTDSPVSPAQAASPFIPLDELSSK
# UniProt Q92618: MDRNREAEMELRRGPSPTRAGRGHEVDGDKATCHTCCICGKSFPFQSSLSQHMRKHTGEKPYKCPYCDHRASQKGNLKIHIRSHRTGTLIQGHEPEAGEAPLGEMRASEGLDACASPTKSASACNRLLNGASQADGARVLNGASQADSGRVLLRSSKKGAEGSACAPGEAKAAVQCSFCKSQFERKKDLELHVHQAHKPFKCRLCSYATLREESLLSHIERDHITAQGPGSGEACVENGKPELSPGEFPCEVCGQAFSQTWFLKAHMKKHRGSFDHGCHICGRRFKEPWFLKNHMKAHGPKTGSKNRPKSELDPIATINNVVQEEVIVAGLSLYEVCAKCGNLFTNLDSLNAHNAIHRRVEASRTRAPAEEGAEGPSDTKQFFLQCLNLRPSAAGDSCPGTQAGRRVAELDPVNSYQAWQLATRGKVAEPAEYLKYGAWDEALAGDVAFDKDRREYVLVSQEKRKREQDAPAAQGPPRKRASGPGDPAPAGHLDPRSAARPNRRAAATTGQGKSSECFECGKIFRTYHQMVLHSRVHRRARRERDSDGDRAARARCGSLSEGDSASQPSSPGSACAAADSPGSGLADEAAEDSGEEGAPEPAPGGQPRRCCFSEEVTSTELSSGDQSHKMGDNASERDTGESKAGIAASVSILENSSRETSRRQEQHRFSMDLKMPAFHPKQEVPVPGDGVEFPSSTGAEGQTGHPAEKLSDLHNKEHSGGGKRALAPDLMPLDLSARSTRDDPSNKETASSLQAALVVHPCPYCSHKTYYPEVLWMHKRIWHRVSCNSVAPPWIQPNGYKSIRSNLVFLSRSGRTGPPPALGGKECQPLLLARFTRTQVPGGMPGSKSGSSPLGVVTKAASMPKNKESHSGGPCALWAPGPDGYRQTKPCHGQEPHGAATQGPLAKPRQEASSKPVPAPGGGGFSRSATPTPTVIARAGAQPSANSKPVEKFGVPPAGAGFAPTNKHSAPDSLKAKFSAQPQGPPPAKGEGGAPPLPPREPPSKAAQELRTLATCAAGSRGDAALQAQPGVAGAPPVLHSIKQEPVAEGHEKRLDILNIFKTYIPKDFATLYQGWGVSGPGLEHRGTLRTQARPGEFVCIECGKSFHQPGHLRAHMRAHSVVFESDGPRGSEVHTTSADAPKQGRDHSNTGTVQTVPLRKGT
# UniProt Q969F1: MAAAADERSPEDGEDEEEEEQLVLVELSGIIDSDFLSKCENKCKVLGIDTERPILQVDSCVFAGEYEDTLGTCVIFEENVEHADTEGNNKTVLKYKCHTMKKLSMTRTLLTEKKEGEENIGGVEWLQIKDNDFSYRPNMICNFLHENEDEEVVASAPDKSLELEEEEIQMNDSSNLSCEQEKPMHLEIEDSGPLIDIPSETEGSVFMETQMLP
# UniProt Q8WY22: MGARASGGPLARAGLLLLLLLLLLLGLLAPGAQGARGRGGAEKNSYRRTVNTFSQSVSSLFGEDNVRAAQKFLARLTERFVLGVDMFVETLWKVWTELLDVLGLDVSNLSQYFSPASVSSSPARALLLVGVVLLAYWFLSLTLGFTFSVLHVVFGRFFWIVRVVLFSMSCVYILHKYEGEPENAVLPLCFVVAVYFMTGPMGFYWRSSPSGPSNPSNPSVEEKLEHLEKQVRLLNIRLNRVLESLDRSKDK
# UniProt Q96A26: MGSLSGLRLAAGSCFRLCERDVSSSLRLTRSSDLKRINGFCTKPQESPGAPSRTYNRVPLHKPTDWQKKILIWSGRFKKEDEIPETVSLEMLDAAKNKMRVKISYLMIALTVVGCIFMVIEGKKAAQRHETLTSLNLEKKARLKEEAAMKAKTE
# UniProt Q96BI3, whole entry: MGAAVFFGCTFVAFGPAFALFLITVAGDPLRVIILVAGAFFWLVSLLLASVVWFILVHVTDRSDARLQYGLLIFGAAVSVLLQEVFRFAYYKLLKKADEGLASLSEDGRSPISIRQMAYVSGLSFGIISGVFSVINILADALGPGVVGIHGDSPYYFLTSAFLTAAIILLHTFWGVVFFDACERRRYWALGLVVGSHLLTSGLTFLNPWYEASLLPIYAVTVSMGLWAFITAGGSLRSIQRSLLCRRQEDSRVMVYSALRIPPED
# This is one part of the list. Single values of this set are uncertain.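 Many melting curves are irregular; where none melted, Tm was taken as 64 °C.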
# Compound: CCc1cnccc1C(=O)Nc1cc2c(cc1F)NC(=O)CC2
# Test: melting temperature shift (DMSO Tm minus MBE1-treated Tm) in cellular thermal proteome profiling; higher = less thermal stabilization by MBE1 (negative = stabilized by MBE1)
# Conditions: A375; MBE1 concentration: 100 nM
row,Target,melting temperature shift [°C]
1,ARPC1A (UniProt Q92747),-0.71
2,AKT1S1 (UniProt Q96B36),-0.919
3,SLC7A6 (UniProt Q92536),2.14
4,UniProt Q92844,5.79
5,POMGNT1 (UniProt Q8WZA1),-0.188
6,UTP4 (UniProt Q969X6),-0.516
7,TSR2 (UniProt Q969E8),0.409
8,UniProt Q92562,-0.14
9,MAML1 (UniProt Q92585),1.72
10,IRGQ (UniProt Q8WZA9),0.232
11,TIFA (UniProt Q96CG3),-1.04
12,GEMIN6 (UniProt Q8WXD5),-2.62
13,UniProt Q96E39,1.47
14,FAM3C (UniProt Q92520),-1.82
15,RTF1 (UniProt Q92541),0.946
16,UniProt Q96DP5,0.146
17,UniProt Q96B45,-4.35
18,RMDN1 (UniProt Q96DB5),-0.503
19,NELFB (UniProt Q8WX92),-1.05
20,UniProt Q969X1,-2.32
21,GCC1 (UniProt Q96CN9),-1.43
22,UniProt Q96C12,-0.0833
23,RNF25 (UniProt Q96BH1),-0.0802
24,P3H4 (UniProt Q92791),-0.241
25,KHSRP (UniProt Q92945),-3.23
26,UniProt Q96AD5,1.77
27,UniProt Q92484,-1.11
28,UniProt Q96E09,-3.31
29,UniProt Q92618,-6.39
30,ZBTB10 (UniProt Q96DT7),0.55

# Same assay, conditions: A375; MBE1 concentration: 1 uM
row,Target,melting temperature shift [°C]
1,NCSTN (UniProt Q92542),-3.62
2,ARPC1A (UniProt Q92747),-0.253
3,GTF3C6 (UniProt Q969F1),0.122
4,AKT1S1 (UniProt Q96B36),0.458
5,POMGNT1 (UniProt Q8WZA1),0.0794
6,UTP4 (UniProt Q969X6),0.188
7,TSR2 (UniProt Q969E8),0.702
8,UniProt Q92562,0.11
9,BRI3BP (UniProt Q8WY22),-0.708
10,IRGQ (UniProt Q8WZA9),-0.0244
11,TIFA (UniProt Q96CG3),-0.867
12,GEMIN6 (UniProt Q8WXD5),-1.99
13,UniProt Q96E39,0.159
14,FAM3C (UniProt Q92520),-0.382
15,RTF1 (UniProt Q92541),0.177
16,UniProt Q96DP5,0.0282

row,Target,melting temperature shift [°C]
1,FAM162A (UniProt Q96A26),0.697
2,UniProt Q96B45,-0.537
3,RMDN1 (UniProt Q96DB5),-0.416
4,NELFB (UniProt Q8WX92),-0.488
5,GCC1 (UniProt Q96CN9),-0.621
6,APH1A (UniProt Q96BI3),-0.165
7,SLC9A6 (UniProt Q92581),-4.82
8,RNF25 (UniProt Q96BH1),0.202
9,P3H4 (UniProt Q92791),-0.467
10,KHSRP (UniProt Q92945),-1.06
11,UniProt Q96AD5,1.12
12,UniProt Q92484,-4.57
13,UniProt Q96C34,-0.65
14,UniProt Q92618,0.224
15,ZBTB10 (UniProt Q96DT7),0.0122
